# Some compounds share one wording; it may come from a single statement.
# Tests used:
# [1] = Brain levels in P47phox knockout mice vs wild type controls, LC/MS/MS; assay type: in vivo, mouse; details: 9 months
# Procedure: Ten knockout mice (5 male and 5 female) and ten wild type controls (5 male and 5 female) were anesthetized prior to sacrifice and removal of the brain at the age of 9 months. The brains were rapidly frozen in liquid nitrogen prior to placement at −80° C. Total lipids were extracted from the brains using a modified Folch procedure. Purified lipid extracts were analyzed by LC/MS/MS. [^2H4]8,12-iso-iPF2α-VI was added as an internal standard.
# [2] = Brain levels in Tg 2576 transgenic mouse model of AD vs littermate controls, LC/MS/MS; assay type: in vivo
# Procedure: (ii) Tg 2576 transgenic mouse model of AD: Eight female Tg 2576 transgenic mice and 8 female littermate controls were anesthetized prior to sacrifice and removal of their brains at the age of 15 months. The brains were rapidly frozen in liquid nitrogen prior to placement at −80° C. Total lipids were extracted and purified as described above. Purified lipid extracts were analyzed by LC/MS/MS. [^2H4]8,12-iso-iPF2α-VI was added as internal standard.
# [3] = In vitro oxidation of DHA with AAPH, LC/MS/MS
# Procedure: In Vitro Oxidation of DHA: Docosahexaenoic acid (DHA), obtained from Cayman Chemical Co. (Ann Arbor, Mich.) was dissolved in ethanol and added to 5 mL PBS, pH 7.4, to a final concentration of 20 mM. 2,2′-azobis(2-amidinopropane)hydrochloride (AAPH; Sigma, St. Louis, Mo.) was used as an oxidant as described (Fessel et al., 2002, Proc Natl Acad Sci USA. 99(26):16713-8). Reactions were allowed to proceed at 37° C., and aliquots were removed for analysis at 0, 2, 4, 8, 12, 24, and 30 hours. Reactions were stopped by immersing the tube in an ice water bath. The aliquots were diluted by a factor of 100 with water. 1.5 ng of [^2H4]8,12-iso-iPF2α-VI was added as internal standard to 10 μL aliquots of the diluted samples. They were then acidified to pH<3 with formic acid and extracted with ethyl acetate. The samples were then purified by SPE before LC/MS/MS analysis. […]
# MS Analyses: Unknown compounds were characterized by stable isotope dilution gas chromatography/electron capture/negative ionization (GC/EC/NI)/MS as the pentafluorobenzyl (PFB) ester, trimethylsilyl (TMS) ether derivative as described (Fessel et al., 2002, Proc Natl Acad Sci USA. 99(26):16713-8). […] Fragmentation patterns of the unknown compounds were analyzed by electrospray (ES) MS/MS in the negative ion mode. [^2H4]8,12-iso-iPF2α-VI was used as an internal standard for quantitation.
# [4] = In vivo oxidation: analysis of liver from CCl4-treated mice, LC/MS/MS; parameters: species or system mouse
# Procedure: In Vivo Oxidation—Analysis of Liver from CCl4-Treated Mice: Treatment of mice with CCl4 was used to induce oxidant injury to the liver as previously described (Kadiiska et al, 2005, Radic Biol Med. 38(6):711-8). Three month-old C57/BL6 male mice were fasted overnight and then administered intraperitoneal (i.p.) injections of CCl4 (4 g/kg body weight). CCl4 was mixed with canola oil (1:1 by volume). Mice were anesthetized with CO2 prior to sacrifice at 0, 1, 2.5, 7.5, or 20 hours after CCl4 administration, their livers were removed and rapidly frozen in liquid nitrogen prior to storage at −80° C. Total lipids were extracted using a modified Folch procedure (Pratico et al., 1997, J Clin Invest. 100(8):2028-34. Erratum in: J Clin Invest 1997 Nov. 15; 100(10):2637). Briefly, frozen samples (0.1-0.5 g) were suspended in 5 mL ice-cold chloroform:methanol (2:1, v/v) with 0.005% (w/v) butylated hydroxytoluene to suppress oxidation. Samples were homogenized using a TissueLyzer™ (Qiagen, Valencia, Calif.). The lipid extracts were mixed vigorously with 2.0 mL NaCl (0.9%, w/v), and the phases separated by centrifugation. After the upper phase was decanted, samples were transferred to clean tubes, and the residual organic solvent was removed under a stream of nitrogen. Total lipids were dissolved in 0.5 mL methanol and stored at −80° C. Lipid extracts were then saponified by adding 0.5 mL of 2.7 N KOH in 0.5 mL methanol. The mixture was then sonicated and mixed vigorously until thoroughly suspended, then heated at 37° C. for 30 minutes. The pH was adjusted to 3.0 with 1.2 mL 1N HCl. Next, 1.0 ng of [^2H4]8,12-iso-iPF2α-VI was added as an internal standard. The samples were purified by solid phase extraction (SPE) using Strata™-X cartridges (Phenomenex, Torrance, Calif.). Purified lipid extracts were analyzed by liquid chromatography/tandem mass spectrometry (LC/MS/MS).
# MS Analyses: Unknown compounds were characterized by stable isotope dilution gas chromatography/electron capture/negative ionization (GC/EC/NI)/MS as the pentafluorobenzyl (PFB) ester, trimethylsilyl (TMS) ether derivative as described (Fessel et al., 2002, Proc Natl Acad Sci USA. 99(26):16713-8). [^2H9]TMS ether derivatization was used to determine the number of the hydroxyl groups. Catalytic hydrogenation was used to reveal the number of double bonds. Compounds were also subjected to methoxime (MO) derivatization conditions to exclude the presence of ketone or aldehyde groups. Exposure to HCl excluded the possibility of epoxides. Fragmentation patterns of the unknown compounds were analyzed by electrospray (ES) MS/MS in the negative ion mode. [^2H4]8,12-iso-iPF2α-VI was used as an internal standard for quantitation.
# [5] = Tg2576 mouse brain cortex, 15 months
# [6] = non-transgenic littermate control brain cortex
Substance,mean level in brain cortex ([1]; p47phox knockout mice),mean level in brain cortex ([1]; wild type control mice),"level in brain cortex [2, 5]","difference in level in cerebellum, Tg 2576 vs control mice [2]","level in brain cortex [2, 6]","effect of increasing oxygen tension on formation ([3]; in vitro oxidation of DHA, various oxygen tension)","maximum formation during oxidation of DHA ([3]; oxidation of DHA using AAPH, maximum by 6 hours)",mean level in mouse liver ([4]; 2.5 hours after CCl4 (4 g/kg i.p.)),mean level in mouse liver ([4]; before CCl4 injection),level of unmetabolized compound in mouse plasma and urine ([4]; mouse plasma and urine),mean level in mouse liver ([4]; one hour after CCl4 (4 g/kg i.p.))
neurofurans [nFs],99.3 ng/g tissue weight,156.2 ng/g,173.2 ng/g tissue weight,no significant difference,109.1 ng/g tissue weight,did not detectably favor,roughly 15 ng/μg DHA,1330.6 ng/g tissue weight,141.3 ng/g tissue weight,below the detectable level,412.2 ng/g
neuroprostanes [nPs],–,–,14.3 ng/g tissue weight,no significant difference,10.5 ng/g tissue weight,–,–,–,–,–,–
isoprostanes [iPs],–,–,7.1 ng/g tissue weight,no significant difference,5.4 ng/g tissue weight,–,–,–,–,–,–
